Out of some 2,800 compounds screened, fewer than 10 were called active. Inconclusive results (about 7%) are left out. Calls follow the shape of the dose curve; as a rule, active = well fitted inhibition curve with a large enough effect; inconclusive = small, poorly fitted or top-dose-only effect; inactive = no such curve, though single readings can be large or run the other way. This is one part of the list.

Sequences of proteins named here, by UniProt entry; tags and fusion partners are left off. A change or cut given only in a name is not applied to a line headed by its entry.
UniProt C7C422: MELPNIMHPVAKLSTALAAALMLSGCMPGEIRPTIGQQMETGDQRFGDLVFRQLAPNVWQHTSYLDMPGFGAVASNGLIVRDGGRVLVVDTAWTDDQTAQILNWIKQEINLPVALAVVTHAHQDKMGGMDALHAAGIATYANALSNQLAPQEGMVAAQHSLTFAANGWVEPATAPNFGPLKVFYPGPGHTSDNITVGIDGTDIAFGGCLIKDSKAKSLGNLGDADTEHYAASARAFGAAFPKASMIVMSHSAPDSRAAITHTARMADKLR

This assay concerns the target Metallo-beta-lactamase type 2 (Klebsiella pneumoniae) (UniProt C7C422). In words: qHTS to identify inhibitors of the New Delhi Metallo-beta-lactamase (NDM): Nitrocefin screen against the machine-based learning selections. Also: % of control where 0% means no effect. The note with it: NDM-1 enzyme, nitrocefin hydrolysis, absorbance 485 nm; activity, negative = inhibition: at the top concentration. The text has this: Assay Submitter (PI): James Inglese Ph.D., Patricia Dranchak Ph.D., Mahesh Aitha Ph.D. Assay Development and Screening Technology Laboratory (ADST) National Center for Advancing Translational Sciences (NCATS), Rockville, MD National Institute of Health (NIH), Bethesda, Maryland The metallo-beta-lactamases (MBL) are a main antibiotic resistance mechanism evolved by bacteria. There is an urgent clinical need for MBL inhibitors to mitigate this growing threat. To support a machine-based learning study, qHTS has been used to experimentally test inhibitors identified by prediction tools.
PROTOCOL TABLE (as described by Inglese et al., 2007) SEQUENCE No. (e.g., 1, 2, 3, etc.); […] (e.g., enzyme, Incubation, Reagent, etc.); VALUE; DESCRIPTION Primary Screen 1; NDM-1; 4 uL of 3 nM enzyme [2 nM final] in 50 mM HEPES (pH 7.0), 1 uM […], 0.01% Tween20; Use BioRaptr to dispense into two sets of Aurora black, clear bottom high base 1536-well plates 2; Compounds; 23 nL; Use Pin Tool (Wako) to transfer DMSO control and library compounds in DMSO 3; Incubate; >30 min 4a; Reagent; 2 uL of 50 uM nitrocefin [16.7 uM final] to one set of assay plates 4b; Reagent; 2 uL of 150 uM meropenem [50 uM final] to second set of assay plates 5a; Incubate; 15 min 5b; Incubate; 30 min 6a; Detector; Absorbance at 485 nm (bandwidth = 5 nm, 25 flashes/well) on Tecan Infinity 6b; Detector; Absorbance at 300 nm (bandwidth = 5 nm, 25 flashes/well) on Tecan Infinity NOTES (numbers refer to sequence above) 1; Column 1 of each plate received assay buffer without enzyme and columns 2-48 received enzyme for a final assay concentration of 2 nM. 2; Control plate contained DMSO in columns 1, 2, 3, and 4. 3; Compound interaction with enzyme. 4; Nitrocefin and meropenem substrates were prepared in the same assay buffer as step 1 for a final assay concentration of 16.7 uM and 50 uM, respectively, and added to all wells across respective sets of assay plates. 5; Default reader settings were applied for absorbance read at 485 nm (nitrocefin) or 300 nm (meropenem), bandwidth = 5 nm, 25 flashes/well. References: Inglese J, Shamu CE, Guy RK. 2007. Reporting data from high-throughput screening of small-molecule libraries. Nat Chem Biol. doi:10.1038/nchembio0807-438 Yasgar A, Shinn P, Jadhav A, Auld D, Michael S, Zheng W, Austin CP, Inglese J, Simeonov A. 2008. Compound Management for Quantitative High-Throughput Screening. J Lab Autom 13:79 - 89. doi:10.1016/j.jala.2007.12.004
For `C[S+](=O)([O-])Nc1cccc(Nc2ncc(-c3cccc(F)c3)c3c2OCC3)c1`, the “activity, negative = inhibition” value was inactive: 17.6% [at 57.5 µM].

`OC1(CNCc2csc3ccc(Cl)cc23)CNCCOC1` (centres undefined): the “activity, negative = inhibition” value is inactive: -2.38%.

On to `CS(=O)(=O)N1CCc2ccc(C(=O)NCCN3CCc4ccccc4C3)cc21`, for which the “activity, negative = inhibition” value is inactive: -24.1%.

In the case of `O=C(Nc1cccc(C(F)(F)F)c1)c1cnc2c(c1)N(Cc1ccccc1)CCC2`, the “activity, negative = inhibition” value was inactive: 5.71% [at 57.5 µM].

On to `Cc1ccc(C)c(-c2cc(C(=O)N3CCCC3c3nncn3C(C)C)[nH]n2)c1` (centres undefined), for which the “activity, negative = inhibition” value is inactive: 2.36%.

Turning to `COc1ccc(C[C@H](NC(=O)[C@@]2(O)C[C@@H](O)[C@H](O)[C@@H](NC(=O)CS(=O)(=O)c3ccccc3)C2)C(N)=O)cc1`, the “activity, negative = inhibition” value was inactive: -1.87%.

Take `O=C(NC1CCN(c2cc(-c3ccc(F)cc3)[nH]n2)CC1)c1cccc2[nH]ccc12`: the “activity, negative = inhibition” value is inactive: -6.2%.

Consider `Cc1nc(CN2CCN(c3ncc(F)c(N(C)C)n3)CC2)cs1`, for which the “activity, negative = inhibition” value is inactive: -10.7%.

Turning to `O=C(O)c1cccc(-c2n[nH]c3c2CC(=O)N(CC2CCOCC2)C3)c1`, the “activity, negative = inhibition” value was inactive: -18% [at 57.5 µM].

With `C=CCN1CCN(C(=O)[C@@H]2Cc3c[nH]c4cccc(c34)[C@H](CC(C)C)N2)CC1`, the “activity, negative = inhibition” value was inactive: 3.27% [at 57.5 µM].

With `Cc1ccc2c(c1)N1C(=O)OC[C@@H]1CCN(C(=O)Nc1ccccc1)C2`, the “activity, negative = inhibition” value was inactive: -1.88% [at 57.5 µM].

Turning to `CCOCC(=O)N[C@H]1CN(Cc2nc(C)c(C)n2C)C[C@@H]1C(C)C`, the “activity, negative = inhibition” value is inactive: 93.6%.

Consider `CN(C)c1ccc(C(=O)N2CCN3C(=O)N(Cc4ccccc4)C(=O)[C@H]3C2)cc1`, for which the “activity, negative = inhibition” value is inactive: -1.71% [at 57.5 µM].

In the case of `COc1ccc(CC(=O)N(C)Cc2ccc(F)cc2)cc1`, the “activity, negative = inhibition” value was inactive: -0.267% [at 57.5 µM].

For the molecule `Cc1ccc(-c2cn3c(n2)CO[C@@H](CNS(=O)(=O)c2cccs2)C3)cc1`, the “activity, negative = inhibition” value is inactive: 0.483% [at 57.5 µM].

As for `COc1ccc(C(=O)NCc2nnc3ccc(-c4ccc(F)cc4)nn23)cc1OC`, the “activity, negative = inhibition” value was inactive: -5.09%.

With `C=CCNC(=O)[C@@H]1Cc2cn(Cc3c(C)noc3C)c3cccc(c23)[C@H](CC(C)C)N1`, the “activity, negative = inhibition” value was inactive: 2.11% [at 57.5 µM].

With `O=C(Cc1c[nH]c2ncc(-c3cccc(O)c3)cc12)N1CCOCC1`, the “activity, negative = inhibition” value is inactive: 2.11% [at 57.5 µM].

For `Cc1nc2ccc(C(=O)NCc3cc4n(n3)CCN(C(=O)N(C)C)C4)cc2o1`, the “activity, negative = inhibition” value is inactive: -2.48%.

Regarding `CCOC(=O)N1CCN(C(=O)C(c2ccccc2C)N(C)C)CC1` (centres undefined), the “activity, negative = inhibition” value is inactive: 0.82%.

In the case of `CC(C)(C)c1ccc(NC(=O)O[C@@H]2CO[C@H]3[C@@H]2OC[C@@H]3Nc2nccc(-c3ccccc3)n2)cc1`, the “activity, negative = inhibition” value was inactive: 1.81%.

Turning to `COc1cc2c(cc1CN1C[C@@H]3CC[C@H](C1)N(CC1CCC1)C3=O)OCCO2`, the “activity, negative = inhibition” value is inactive: -0.667%.

Turning to `CCOCCn1c(=O)[nH]c2cc(C(=O)NCc3cc(=O)[nH]c(C)n3)ccc21`, the “activity, negative = inhibition” value was inactive: -3.04%.

Turning to `CC1=C[C@@H](CNCc2ccc(C#N)cc2)[C@H](C(C)C)C[C@H]1Cc1nnc(-c2cccnc2)o1`, the “activity, negative = inhibition” value was inactive: -0.0925%.

Turning to `CN1C(=O)CO[C@H](c2ccc(NC(=O)c3ccc(-c4ccccc4)cc3)cc2)[C@H]1CO`, the “activity, negative = inhibition” value is inactive: -9.65% [at 57.5 µM].

Take `O=C(N[C@H]1CO[C@H]2[C@@H]1OC[C@@H]2n1nnnc1-c1ccc2c(c1)OCO2)c1ccc(C(F)(F)F)cc1`: the “activity, negative = inhibition” value was inactive: 14.8%.

On to `COc1ccc(CN2CCOC[C@H](OC)C2)cn1`, for which the “activity, negative = inhibition” value was inactive: 1.51% [at 76.7 µM].

`Cc1ccsc1-c1[nH]nc2ncc(-c3cccc(O)c3)nc12`: the “activity, negative = inhibition” value was inactive: 9.44% [at 57.5 µM].

In the case of `FC(F)(F)Oc1ccc(-c2cnc([C@@H]3COCCN3Cc3ccncc3)[nH]2)cc1`, the “activity, negative = inhibition” value was inactive: -1.63% [at 57.5 µM].

For `N[C@@H](Cc1cnc[nH]1)C(=O)N1CCC2(CC1)CN(CCOc1ccccc1)C(=O)O2`, the “activity, negative = inhibition” value was inactive: 23.4%.

Take `CC1(CNCc2ccccc2)COc2ccc(C(=O)Nc3cccnc3)cc2N1` (centres undefined): the “activity, negative = inhibition” value is inactive: 0.768% [at 57.5 µM].

For `Fc1cccc(Nc2cnc3ccc(-c4ccccc4)nn23)c1`, the “activity, negative = inhibition” value is inactive: -15.4% [at 57.5 µM].

For the molecule `C=CCNC(=O)[C@@H]1Cc2cn(Cc3ccncc3)c3cccc(c23)[C@H](CC(C)C)N1`, the “activity, negative = inhibition” value is inactive: -1.56% [at 57.5 µM].

For the molecule `CN1CCC(NC(=O)Cc2c[nH]c3ncc(-c4ccccc4)cc23)CC1`, the “activity, negative = inhibition” value was inactive: 19.2% [at 57.5 µM].

In the case of `O=C(Cc1c[nH]c2ncc(-c3ccncc3)cc12)NCc1cccnc1`, the “activity, negative = inhibition” value is inactive: 7.18% [at 57.5 µM].

Take `CC(C)CCCC1CN(C(=O)c2c(O)cccc2O)CCO1` (centres undefined): the “activity, negative = inhibition” value was inactive: -3.01%.

Consider `O=C(NC1CCCCC1)O[C@@H]1CO[C@H]2[C@@H]1OC[C@@H]2NS(=O)(=O)c1ccc(Cl)cc1`, for which the “activity, negative = inhibition” value is inactive: 1.63%.

For the molecule `OC1(c2csc(CN3CCOCC3)n2)CCN(CC2CCCCC2)CC1`, the “activity, negative = inhibition” value is inactive: 2.57% [at 57.5 µM].

As to `Cc1nc2c(c(-c3ccc(Cl)cc3)n1)CCN(C(=O)C1CC1)CC2`, the “activity, negative = inhibition” value is inactive: -14.4%.

For the molecule `Cc1cc(-c2ccccc2)nc(CN2CC[C@@](O)(C3CCC3)[C@H](C)C2)n1`, the “activity, negative = inhibition” value was inactive: -7.57%.

In the case of `O=C(Nc1ccc(-c2nnc3n2CCCC3)cc1)C1CC1`, the “activity, negative = inhibition” value was inactive: 0.555%.

On to `CCC(C)NC(=O)CC1Sc2ncccc2N(C)C1=O` (centres undefined), for which the “activity, negative = inhibition” value was inactive: -4.27%.

Regarding `COc1ccccc1C(=O)Nc1ccnn1C1CCN(C(=O)[C@@H](N)CO)CC1`, the “activity, negative = inhibition” value was inactive: 0.0925%.

Consider `CC(C)(C)c1ccc(C(=O)Nc2ccc(C(O)[C@H]3COCC(=O)N3)cc2)cc1` (some centres undefined), for which the “activity, negative = inhibition” value was inactive: -5.31% [at 57.5 µM].

As to `OC(c1ccccc1)c1nc(Nc2ccc(C(F)(F)F)cc2)n[nH]1` (centres undefined), the “activity, negative = inhibition” value is inactive: 7.39% [at 57.5 µM].

In the case of `c1ccc(OCCNc2nc(-c3cccnc3)nc3c2CCNCC3)cc1`, the “activity, negative = inhibition” value is inactive: -10.6%.

Regarding `CCN(Cc1ccc(C)o1)C(=O)c1ccc2nc(-c3ccc(F)cc3)cn2c1`, the “activity, negative = inhibition” value is inactive: -1%.

With `COC(=O)N1CCCCC(NC(=O)CCCc2nc(-c3ccccc3C)no2)C1` (centres undefined), the “activity, negative = inhibition” value was inactive: -1.3%.

Take `CCNC(=O)N[C@H]1[C@H](O)[C@@H](N(C)CCN(C)C)[C@@H]2OC[C@H]1O2`: the “activity, negative = inhibition” value was inactive: 12.1% [at 57.5 µM].
